# Article PMC8995424
# Amino acid sequences for entries named in this document (tags omitted). Residues count along the entry.
# UniProt P19490, residues 19-907: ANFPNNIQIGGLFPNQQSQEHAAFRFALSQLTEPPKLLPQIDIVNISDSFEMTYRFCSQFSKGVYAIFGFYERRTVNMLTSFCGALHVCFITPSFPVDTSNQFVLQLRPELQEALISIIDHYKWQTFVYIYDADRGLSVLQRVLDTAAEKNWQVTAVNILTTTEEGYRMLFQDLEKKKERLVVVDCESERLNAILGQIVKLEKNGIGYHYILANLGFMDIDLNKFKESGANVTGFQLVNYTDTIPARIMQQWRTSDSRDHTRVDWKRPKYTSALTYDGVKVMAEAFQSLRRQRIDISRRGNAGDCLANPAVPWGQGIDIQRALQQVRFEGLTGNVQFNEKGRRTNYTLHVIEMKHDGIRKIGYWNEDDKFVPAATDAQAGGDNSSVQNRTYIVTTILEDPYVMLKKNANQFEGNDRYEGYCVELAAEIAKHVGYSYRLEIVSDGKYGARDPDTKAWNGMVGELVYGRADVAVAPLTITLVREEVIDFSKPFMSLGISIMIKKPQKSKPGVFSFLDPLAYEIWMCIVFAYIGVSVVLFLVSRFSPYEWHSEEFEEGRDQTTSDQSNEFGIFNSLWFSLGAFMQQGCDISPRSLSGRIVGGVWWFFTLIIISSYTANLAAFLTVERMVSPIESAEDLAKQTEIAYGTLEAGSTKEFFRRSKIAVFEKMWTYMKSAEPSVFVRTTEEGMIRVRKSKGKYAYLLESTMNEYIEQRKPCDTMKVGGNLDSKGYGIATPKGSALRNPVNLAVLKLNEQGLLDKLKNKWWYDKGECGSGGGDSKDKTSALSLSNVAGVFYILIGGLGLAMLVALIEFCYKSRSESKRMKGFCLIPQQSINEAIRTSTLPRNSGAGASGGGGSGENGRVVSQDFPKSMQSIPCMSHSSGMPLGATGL
# UniProt P19491, residues 22-883: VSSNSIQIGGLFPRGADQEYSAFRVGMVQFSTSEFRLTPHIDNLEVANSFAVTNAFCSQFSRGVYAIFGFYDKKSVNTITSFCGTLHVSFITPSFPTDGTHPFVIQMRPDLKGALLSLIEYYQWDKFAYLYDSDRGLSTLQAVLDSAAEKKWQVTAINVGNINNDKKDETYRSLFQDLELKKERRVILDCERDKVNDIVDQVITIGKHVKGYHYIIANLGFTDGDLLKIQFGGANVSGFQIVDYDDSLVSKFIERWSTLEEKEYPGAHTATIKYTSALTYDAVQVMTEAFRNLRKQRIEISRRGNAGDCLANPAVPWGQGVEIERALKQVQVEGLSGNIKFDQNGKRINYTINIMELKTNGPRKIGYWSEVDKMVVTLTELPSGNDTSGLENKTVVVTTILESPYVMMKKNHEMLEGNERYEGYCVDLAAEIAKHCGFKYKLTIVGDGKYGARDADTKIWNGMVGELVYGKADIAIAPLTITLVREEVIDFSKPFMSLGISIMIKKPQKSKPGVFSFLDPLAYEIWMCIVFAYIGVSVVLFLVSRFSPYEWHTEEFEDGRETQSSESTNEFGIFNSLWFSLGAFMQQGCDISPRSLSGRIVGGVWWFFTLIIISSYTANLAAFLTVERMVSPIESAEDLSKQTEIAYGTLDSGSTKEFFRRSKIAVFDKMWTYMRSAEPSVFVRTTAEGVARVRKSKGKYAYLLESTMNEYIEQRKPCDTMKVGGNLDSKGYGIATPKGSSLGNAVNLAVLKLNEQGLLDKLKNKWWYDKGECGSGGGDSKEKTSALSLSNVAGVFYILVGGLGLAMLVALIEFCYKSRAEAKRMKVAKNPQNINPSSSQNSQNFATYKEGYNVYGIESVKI
# UniProt P19492, residues 23-888: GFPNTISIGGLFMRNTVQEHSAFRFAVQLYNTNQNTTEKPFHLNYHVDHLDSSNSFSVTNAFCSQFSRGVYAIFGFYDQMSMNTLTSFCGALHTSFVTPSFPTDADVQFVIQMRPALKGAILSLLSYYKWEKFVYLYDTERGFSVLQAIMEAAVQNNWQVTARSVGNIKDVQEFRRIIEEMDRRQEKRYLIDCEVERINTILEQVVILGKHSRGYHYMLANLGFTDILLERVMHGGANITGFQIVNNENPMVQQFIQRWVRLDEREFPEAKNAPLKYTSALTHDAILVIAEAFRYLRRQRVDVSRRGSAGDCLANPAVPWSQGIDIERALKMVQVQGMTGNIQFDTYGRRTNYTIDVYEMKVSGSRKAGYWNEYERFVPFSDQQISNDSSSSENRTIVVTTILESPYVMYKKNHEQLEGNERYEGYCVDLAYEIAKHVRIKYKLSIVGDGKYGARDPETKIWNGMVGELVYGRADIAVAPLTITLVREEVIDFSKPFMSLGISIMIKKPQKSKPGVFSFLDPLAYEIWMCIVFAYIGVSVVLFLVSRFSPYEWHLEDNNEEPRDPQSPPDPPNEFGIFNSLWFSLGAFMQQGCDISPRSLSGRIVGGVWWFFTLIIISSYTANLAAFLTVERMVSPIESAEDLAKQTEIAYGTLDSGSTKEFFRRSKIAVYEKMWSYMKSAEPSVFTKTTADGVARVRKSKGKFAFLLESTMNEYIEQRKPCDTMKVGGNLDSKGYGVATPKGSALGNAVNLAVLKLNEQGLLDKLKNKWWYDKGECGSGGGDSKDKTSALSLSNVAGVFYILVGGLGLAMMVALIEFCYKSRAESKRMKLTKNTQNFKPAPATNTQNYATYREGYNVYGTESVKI
# UniProt P19493, residues 21-902: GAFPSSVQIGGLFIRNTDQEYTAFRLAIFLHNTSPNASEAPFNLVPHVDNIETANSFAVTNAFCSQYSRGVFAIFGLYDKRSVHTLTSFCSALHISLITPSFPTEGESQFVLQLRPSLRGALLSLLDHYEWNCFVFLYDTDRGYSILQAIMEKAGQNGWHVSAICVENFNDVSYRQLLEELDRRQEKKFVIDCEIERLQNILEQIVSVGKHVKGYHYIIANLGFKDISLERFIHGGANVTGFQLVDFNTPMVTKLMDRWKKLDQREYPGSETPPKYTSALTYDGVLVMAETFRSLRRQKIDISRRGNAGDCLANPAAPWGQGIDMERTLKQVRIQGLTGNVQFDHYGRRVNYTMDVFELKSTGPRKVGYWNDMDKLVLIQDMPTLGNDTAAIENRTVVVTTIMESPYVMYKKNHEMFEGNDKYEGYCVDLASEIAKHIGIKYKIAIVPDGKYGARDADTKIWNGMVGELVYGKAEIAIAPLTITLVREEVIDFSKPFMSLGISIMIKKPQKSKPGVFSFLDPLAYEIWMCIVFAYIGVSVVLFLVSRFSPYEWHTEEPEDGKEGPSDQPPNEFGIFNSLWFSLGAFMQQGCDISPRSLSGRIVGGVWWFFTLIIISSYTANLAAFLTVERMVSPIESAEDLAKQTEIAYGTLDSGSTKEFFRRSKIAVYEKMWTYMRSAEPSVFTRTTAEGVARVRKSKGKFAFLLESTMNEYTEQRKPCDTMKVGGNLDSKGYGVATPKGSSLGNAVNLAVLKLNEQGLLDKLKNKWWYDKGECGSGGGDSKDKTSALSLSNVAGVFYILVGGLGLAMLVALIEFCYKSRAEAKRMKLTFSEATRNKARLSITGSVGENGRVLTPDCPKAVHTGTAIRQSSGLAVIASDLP
# Positions count from the first letter of the chain named. Results are given in words; binding and its absence hold for the method and conditions named. Binding seen in cells or lysates may run through a third protein. Some binding calls cover weakened binding; strength is not graded here. Sequences can lack the tags named with a protein.
# Columns and labels:
# GST-Spastin WT (rat) = molecular target: T1, GST-Spastin WT (rat) (UniProt B2RYN7); test: pull-down; 5 ug GST-fusion protein (bait) incubated with about 400 ug brain protein from 1-month-old SD rats, gentle rotation, 4°C overnight; bound proteins eluted and analysed by western blotting; only the target purified
# T1 sequence: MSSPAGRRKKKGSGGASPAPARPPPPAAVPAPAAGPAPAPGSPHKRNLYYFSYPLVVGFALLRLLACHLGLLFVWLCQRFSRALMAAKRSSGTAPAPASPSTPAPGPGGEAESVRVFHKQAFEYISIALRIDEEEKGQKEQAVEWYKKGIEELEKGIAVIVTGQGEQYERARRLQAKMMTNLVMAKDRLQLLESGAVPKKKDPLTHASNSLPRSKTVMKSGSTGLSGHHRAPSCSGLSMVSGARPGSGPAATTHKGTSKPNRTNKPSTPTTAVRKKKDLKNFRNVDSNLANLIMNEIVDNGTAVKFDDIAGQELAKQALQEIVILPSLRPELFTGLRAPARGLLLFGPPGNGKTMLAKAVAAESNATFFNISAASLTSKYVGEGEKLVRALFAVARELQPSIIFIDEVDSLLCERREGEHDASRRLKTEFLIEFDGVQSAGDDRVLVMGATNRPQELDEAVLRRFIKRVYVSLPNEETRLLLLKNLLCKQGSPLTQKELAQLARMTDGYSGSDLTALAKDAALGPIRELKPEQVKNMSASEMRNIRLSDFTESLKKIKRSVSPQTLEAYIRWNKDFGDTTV
# GST-Spastin QmD (rat) = molecular target: T2, GST-Spastin QmD (rat) (UniProt B2RYN7); test: as above
# T2 sequence: T1 sequence with S210D, S233D, T271D, S562D
# GFP-Spastin K353A (rat) = molecular target: T3, GFP-Spastin K353A (rat) (UniProt B2RYN7); test: co-IP; HEK293T cells co-transfected with Flag-GluA2 and GFP-Spastin or its mutants, 48 h; lysis in 25 mM Tris-Cl pH 7.4, 100 mM NaCl, 1 mM EDTA, 0.5% NP40; anti-GFP agarose beads, 4°C, 3 h; blots with anti-Flag and anti-GFP
# T3 sequence: T1 sequence with K353A
# GFP-Spastin QmD (rat) = molecular target: T4, GFP-Spastin QmD (rat) (UniProt B2RYN7); test: as above
# T4 sequence: T1 sequence with S210D, S233D, T271D, S562D
# GFP-Spastin R464C (rat) = molecular target: T5, GFP-Spastin R464C (rat) (UniProt B2RYN7); test: as above
# T5 sequence: T1 sequence with R464C
# GFP-Spastin WT (rat) = molecular target: T6, GFP-Spastin WT (rat) (UniProt B2RYN7); test: as above
# T6 sequence: T1 sequence
substance,measurement,setting,value
AMPA receptor subunit GluA1 (from UniProt P19490 19-907),binding,GST-Spastin WT (rat),binds
AMPA receptor subunit GluA2 (from UniProt P19491 22-883),binding,GST-Spastin QmD (rat),binds
same,binding,GST-Spastin WT (rat),binds
AMPA receptor subunit GluA3 (from UniProt P19492 23-888),binding,GST-Spastin WT (rat),binds
AMPA receptor subunit GluA4 (from UniProt P19493 21-902),binding,GST-Spastin WT (rat),binds
Flag-GluA2 (from UniProt P19491 22-883) (receptor),binding,GFP-Spastin K353A (rat),binds
same,binding,GFP-Spastin QmD (rat),binds
same,binding,GFP-Spastin R464C (rat),binds
same,binding,GFP-Spastin WT (rat),binds
